Values quoted from earlier work in patent US20030039672A1, “Cosmetic composition and method of treating skin” (Unilever Home & Personal Care USA, Division of Conopco, Inc., priority 2001, published 2003).
At least one structure is not confirmed: it was looked up by name or label, or the drawing left a doubt.

How the values were obtained:
decorin in skin = conditions: topical treatment; from co-pending European application No. 99908956.8; cited from earlier work
procollagen I in skin = conditions: topical treatment; from co-pending European application No. 99908956.8; cited from earlier work

Structure (SMILES): CC1=C(/C=C/C(C)=C/C=C/C(C)=C/C(=O)O)C(C)(C)CCC1 [retinoic acid]
- decorin in skin in vivo (decorin in skin): upregulation
- procollagen I in skin in vivo (procollagen I in skin): upregulation
